No constants are given. Whether binding was seen depends on the method and setting. A result given as binding can be weak or reduced; the word gives no strength.
Biological target: T1, p53 (Drosophila) (UniProt Q9N6D8)
T1 sequence: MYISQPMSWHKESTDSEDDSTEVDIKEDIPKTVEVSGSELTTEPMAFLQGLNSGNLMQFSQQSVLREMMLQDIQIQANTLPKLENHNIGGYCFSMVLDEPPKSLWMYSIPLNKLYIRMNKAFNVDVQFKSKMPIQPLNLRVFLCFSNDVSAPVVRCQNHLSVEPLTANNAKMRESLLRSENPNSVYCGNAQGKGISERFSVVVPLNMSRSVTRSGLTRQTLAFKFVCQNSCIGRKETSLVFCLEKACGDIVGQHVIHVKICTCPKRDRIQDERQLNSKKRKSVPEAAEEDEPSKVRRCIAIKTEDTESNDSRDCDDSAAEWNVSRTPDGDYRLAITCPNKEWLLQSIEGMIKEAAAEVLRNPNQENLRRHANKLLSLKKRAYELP
Assay: two-hybrid; yeast two-hybrid in EGY40 cells with pEG202 and pJG4-5 vectors; lacZ reporter, blue colonies; empty vectors as controls

binding: binds
Substance: Cyclin domains of Cyclin G (Drosophila) (domain or fragment)
